Measured values taken from patent US9855256B2, “Cyclooxygenase inhibitor and calcium channel antagonist compositions and methods for use in urological procedures” (Omeros Corporation, priority 2005, dated 2018).

Test: in vivo
Settings: rat, 10 μM

Compound: COC(=O)C1=C(C)NC(C)=C(C(=O)OC)C1c1ccccc1[N+](=O)[O-] [Nifedipine, 1,4-dihydro-2,6-dimethyl-4-(2-nitrophenyl)-3,5-pyridinedicarboxylic acid dimethyl ester]
- Cmax: 10.6 to 16 ng/mL
